{"source": "PubChem BioAssay AID1347076", "about": "(National Center for Advancing Translational Sciences (NCATS), 2019)", "note": "The campaign covered roughly 400,000 compounds. About 13,000 (3.2%) were called active. The inconclusive results got no clear call from the source; some entries with a clear call stand among them for comparison. Calls follow the shape of the dose curve; as a rule, active = well fitted cell-killing curve with a large enough effect; inconclusive = small, poorly fitted or top-dose-only effect, or effect the other way; inactive = flat fitted curve, though single readings scatter. A potency beside an inconclusive call is a rough fit, not a confirmed value. % is scaled to controls: 0 for no effect and ±100 for the full control effect; potency is read from the fitted curve at half-maximal effect."}
{"assay": "qHTS assay for MDR1-selective chemotherapeutics: Primary screen using the drug-selected MDR subline cells KB-V1; also: nearly all actives have a fitted effect of over 60% in size", "details": "KB-V1 MDR cells viability, CellTiter-Glo, 72 h; activity change, negative = cytotoxicity: at 46.1 µM (top of the series)", "method_in_brief": "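Compound-treated KB-V1 multidrug-resistant cells, 72 h, 37 degrees C; viability by CellTiter-Glo. Fitted qHTS curves give the values.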"}
{"smiles": "O=C(COC(=O)CCC(=O)c1ccc(F)cc1)Nc1cccc(S(=O)(=O)N2CCCC2)c1", "activity change, negative = cytotoxicity": "inactive: -5.11%"}
{"smiles": "COCc1nn2c(N)c(-c3ccccc3)cnc2c1-c1ccccc1", "Potency": "inconclusive: 25.9 µM [cytotoxic, single point]"}
{"smiles": "O=C(NN=C1CCCCCC1)c1ccc2c(c1)OCO2", "activity change, negative = cytotoxicity": "inactive: 0%"}
{"smiles": "Cc1cc(C)cc(-n2ccn(CC(=O)NCCc3ccccc3)c(=O)c2=O)c1", "Potency": "inconclusive: 18.4 µM [rising, single point]"}
{"smiles": "CN(c1ccccc1)S(=O)(=O)c1cccc(NC(=O)c2cncc(Br)c2)c1", "Potency": "inconclusive: 11.6 µM [cytotoxic, partial curve, poor fit]"}
{"smiles": "CCC(C)[C@H]1CNC(=O)C(=O)N1CCc1cccc2ccccc12", "note": "(stereo not given in full)", "activity change, negative = cytotoxicity": "inactive: 0%"}
{"smiles": "CN1CCN(C(=O)c2ccc3c(Cl)c4c(nc3c2)CCCC4)CC1", "Potency": "inconclusive: 18.4 µM [cytotoxic, partial curve, poor fit]"}
{"smiles": "Cc1ccc2cc3c(NC(=O)c4ccco4)nn(CC(C)C)c3nc2c1", "Potency": "inconclusive: 29.1 µM [cytotoxic, single point]"}
{"smiles": "CC1CC(C)CN(S(=O)(=O)c2ccc(NC(=S)NC(=O)c3ccccc3)cc2)C1", "note": "(stereo not given)", "Potency": "inconclusive: 0.82 µM [cytotoxic, full curve, poor fit]"}
{"smiles": "Cc1ccc(S(=O)(=O)N(C)C)cc1NC(=O)c1ccncc1", "Potency": "inconclusive: 20.6 µM [rising, single point]"}
{"smiles": "CCN(CC)c1ccc(NC(=O)C2CC(=O)N(Cc3ccccc3)C2)cc1", "note": "(stereo not given)", "Potency": "inconclusive: 16.4 µM [cytotoxic, single point]"}
{"smiles": "COc1ccccc1NC(=O)CSc1nc2n[nH]c(C)c2c(=N)n1-c1ccccc1Cl", "Potency": "active: 16.4 µM"}
{"smiles": "O=C(C1COc2ccccc2O1)N1CCN(c2nc3c(F)cc(F)cc3s2)CC1", "note": "(stereo not given)", "Potency": "inconclusive: 29.1 µM [cytotoxic, single point]"}
{"smiles": "CCNC(=O)CCCN1C(=O)CCn2nc(-c3cccn3C)cc21", "activity change, negative = cytotoxicity": "inactive: -0.711%"}
{"smiles": "Cc1nc2cc(NC(=O)NCCC3=CCCCC3)ccc2o1", "Potency": "inconclusive: 23.1 µM [cytotoxic, single point]"}
{"smiles": "COc1ccc(NC(=O)[C@@H]2CCCN2C(=O)[C@@H]2Cc3ccccc3CN2C(=O)OC(C)(C)C)cc1", "Potency": "inconclusive: 0.206 µM [cytotoxic, full curve, poor fit]"}
{"smiles": "O=S(=O)(c1cccc(COc2c(Cl)cccc2Cl)c1)N1CCOCC1", "Potency": "inconclusive: 20.6 µM [cytotoxic, single point]"}
{"smiles": "CS(=O)(=O)c1ccc(Nc2nc(C(N)Cc3ccccc3)cs2)cc1", "note": "(stereo not given)", "activity change, negative = cytotoxicity": "inactive: -12.3%"}
{"smiles": "CC1(Cc2cccc(C#N)c2)C(=O)Nc2ccc(-c3cccc(C(F)(F)F)c3)cc21", "note": "(stereo not given)", "Potency": "inconclusive: 29.1 µM [cytotoxic, single point]"}
{"smiles": "CCN(CC)c1nc(-c2ccccc2)ncc1S(=O)(=O)c1ccc(C)cc1", "activity change, negative = cytotoxicity": "inactive: -3.48%"}
{"smiles": "CN(Cc1ccc(OC(F)F)cc1)C(=O)c1ccc2c(=O)n3c(nc2c1)CCC3", "Potency": "inconclusive: 0.326 µM [cytotoxic, full curve]"}
{"smiles": "COc1ccc(/C(N)=N/OC(=O)CCCc2ccccc2)cc1OC", "Potency": "inconclusive: 16.4 µM [cytotoxic, partial curve]"}
{"smiles": "COc1ccc(-n2c(/C=C/c3cccc4ccccc34)nc3ccccc3c2=O)cc1OC", "Potency": "inconclusive: 20.6 µM [cytotoxic, single point]"}
{"smiles": "O=C1/C(=C/c2ccc(F)cc2)SC(=S)N1N1CCOCC1", "Potency": "inconclusive: 18.4 µM [rising, partial curve, poor fit]"}
{"smiles": "CCOc1cc(C(=O)OCC(=O)Nc2cccc(S(=O)(=O)NC3=NCCCCC3)c2)cc(OCC)c1OCC", "Potency": "active: 8.2 µM"}
{"smiles": "Cc1ccc([C@H]2N[C@]3(CCCN(Cc4ccc(Cl)cc4)C3=O)[C@H]3C(=O)N(Cc4ccccc4)C(=O)[C@@H]23)cc1", "activity change, negative = cytotoxicity": "inactive: -4.79%"}
{"smiles": "Cc1ccc2nc(NCc3ccccc3)c3nncn3c2c1", "activity change, negative = cytotoxicity": "inconclusive: 31.7%"}
{"smiles": "CCCn1c(SCc2nc3sc(C)c(C)c3c(=O)[nH]2)nc2ccccc2c1=O", "Potency": "active: 9.2 µM"}
{"smiles": "CC1(C)CC[C@]2(C(=O)O)CC[C@]3(CO)C(=CCC4[C@@]5(C)C[C@H](O)[C@H](O)[C@@](C)(C(=O)O)C5CC[C@]43C)[C@@H]2C1", "note": "(stereo not given in full)", "activity change, negative = cytotoxicity": "inactive: 3.61%"}
{"smiles": "CCCC1(c2ccccc2)NC(=O)N(CC(=O)N(C)Cc2c(F)cccc2Cl)C1=O", "note": "(stereo not given)", "Potency": "inconclusive: 9.2 µM [cytotoxic, partial curve]"}
{"smiles": "COc1ccc(NC(=O)CSCc2cc(=O)c3cc(C)ccc3[nH]2)cc1", "Potency": "inconclusive: 29.1 µM [rising, single point]"}
{"smiles": "Cc1cc(C)n(-c2ccc(C(=O)Nc3ccc(S(=O)(=O)N(C)C)cc3)cc2)n1", "Potency": "inconclusive: 10.3 µM [cytotoxic, partial curve]"}
{"smiles": "COc1ccc(CCN(C)c2ccc(S(=O)(=O)N3CCCC3)cc2[N+](=O)[O-])cc1OC", "Potency": "active: 2.59 µM"}
{"smiles": "CN(C)C(=S)Nc1ccc2c(c1)OCO2", "Potency": "inconclusive: 3.66 µM [rising, partial curve, poor fit]"}
{"smiles": "O=c1c2ccccc2nc(-c2ccccc2)n1CCCN1CCOCC1", "activity change, negative = cytotoxicity": "inactive: 3.59%"}
{"smiles": "C=CCn1c(CNC(=O)c2ccccc2F)nnc1SCC(=O)NC(C)c1ccccc1", "note": "(stereo not given)", "activity change, negative = cytotoxicity": "inactive: -6.3%"}
{"smiles": "O=C(Nc1ccccc1Cl)O/N=C/c1ccc(F)cc1", "activity change, negative = cytotoxicity": "inactive: 12.2%"}
{"smiles": "Cc1cc2c(=O)n(Cc3ccco3)c(SCC(=O)NCc3ccco3)nc2s1", "activity change, negative = cytotoxicity": "inactive: 0%"}
{"smiles": "COC(=O)c1cccc(Cn2nc(C)c([N+](=O)[O-])c2C)c1", "Potency": "inconclusive: 11.6 µM [cytotoxic, partial curve, poor fit]"}
{"smiles": "CN(C(=O)CSc1nc2ccc(NC(=O)c3cccc(F)c3)cc2s1)c1ccccc1", "Potency": "active: 9.2 µM"}
{"smiles": "CCOc1ccc(CNC(=O)c2ccc3c(Cl)c4c(nc3c2)CCCC4)cc1", "activity change, negative = cytotoxicity": "inactive: 0.152%"}
{"smiles": "COc1cccc(C2N=C(c3ccccc3C)NO2)c1OC", "note": "(stereo not given)", "activity change, negative = cytotoxicity": "inactive: -28.1%"}
{"smiles": "CCOC(=O)c1cc(-c2ccccc2C)n(CC2CC(c3cccc([N+](=O)[O-])c3)=NO2)n1", "note": "(stereo not given)", "Potency": "inconclusive: 29.1 µM [cytotoxic, partial curve, poor fit]"}
{"smiles": "O=C(CCl)Nc1cc(-c2ccccc2)nn1-c1ccccc1", "Potency": "active: 7.31 µM"}
{"smiles": "Cc1cccc(N2CCN(C(=O)NCc3ccc(F)cc3)CC2)c1C", "Potency": "inconclusive: 13 µM [cytotoxic, partial curve]"}
